This series is described as follows: peptide synthesis. Particulars: for final HPLC purity: HPLC-MS, Agilent 1200 HPLC/6100 SQ, C18 columns, DAD (214 nm and 254 nm), ELSD.
Where [1] appears, read: late stage modification step, 2 steps.

“(4S)-5-(4-{[({4-[(2S)-2-[(2S)-2-[1-(4-{2-Azatricyclo[10.4.0.04,9]hexadeca-1(12),4(9),5,7,13,15-hexaen-10-yn-2-yl}-4-oxobutanamido)-3,6,9,12-tetraoxapentadecan-15-amido]-3-methylbutanamido]-5-(carbamoylamino)pentanamido]phenyl}methoxy)carbonyl]amino}phenyl)-2,2-dimethyl-4-({2-[(1R,3R)-4-methyl-3-[(2S,3S)-3-methyl-2-{[(2R)-1-methylpiperidin-2-yl]formamido}-N-(pentyloxy)pentanamido]-1-[(methylcarbamoyl)oxy]pentyl]-1,3-thiazol-4-yl}formamido)pentanoic acid”: under “conjugation step”, the conjugation yield was found to be 80% and the “final HPLC purity” value was determined as 99%.

With “(4S)-5-{4-[(2S)-2-[(2S)-2-[1-(4-{2-Azatricyclo[10.4.0.0^4,9]hexadeca-1(12),4(9),5,7,13,15-hexaen-10-yn-2-yl}-4-oxobutanamido)-3,6,9,12-tetraoxapentadecan-15-amido]-3-methylbutanamido]-5-(carbamoylamino)pentanamido]phenyl}-2,2-dimethyl-4-({2-[(1R,3R)-4-methyl-3-[(2S,3S)-3-methyl-2-{[(2R)-1-methylpiperidin-2-yl]formamido}-N-(pentyloxy)pentanamido]-1-[(methylcarbamoyl)oxy]pentyl]-1,3-thiazol-4-yl}formamido)pentanoic acid”, where the note is “conjugation step”, the conjugation yield is 52% and the “final HPLC purity” value is listed as more than 99%.

Take “(4S)-5-{4-[(2S)-2-[(2S)-2-[1-(4-{2-Azatricyclo[10.4.0.0^4,9]hexadeca-1(12),4(9),5,7,13,15-hexaen-10-yn-2-yl}-4-oxobutanamido)-3,6,9,12-tetraoxapentadecan-15-amido]-3-methylbutanamido]propanamido]-3-fluorophenyl}-4-({2-[(1R,3R)-3-[(2S,3S)—N-hexyl-3-methyl-2-{[(2R)-1-methylpiperidin-2-yl]formamido}pentanamido]-4-methyl-1-[(methylcarbamoyl)oxy]pentyl]-1,3-thiazol-4-yl}formamido)-2,2-dimethylpentanoic acid”: for the setting “conjugation step”, the conjugation yield is 65% and the “final HPLC purity” value is reported as more than 99%.

Consider “(S)-4-(2-((1R,3R)-1-Acetoxy-3-((2S,3S)—N-(4-(1-(3-carboxypropyl)-1H-1,2,3-triazol-4-yl)butyl)-3-methyl-2-((R)-1-methylpiperidine-2-carboxamido)pentanamido)-4-methylpentyl)thiazole-4-carboxamido)-5-(4-aminophenyl)-2,2-dimethylpentanoic acid”, for which the step yield under setting [1] amounted to 11% yield in 2 steps. Under “whole synthesis”, the “final HPLC purity” value is 95.6%.

For “(S)-4-(2-((1R,3R)-1-Acetoxy-3-((2S,3S)—N-(4-(1-benzyl-1H-1,2,3-triazol-4-yl)butyl)-3-methyl-2-((R)-1-methylpiperidine-2-carboxamido)pentanamido)-4-methylpentyl)thiazole-4-carboxamido)-5-(4-aminophenyl)-2,2-dimethylpentanoic acid”, the step yield (late stage modification step) was 50% yield. For the setting “whole synthesis”, the “final HPLC purity” value worked out at 100%.

As for “(S)-4-(2-((1R,3R)-1-Acetoxy-3-((2S,3S)—N-(hex-5-yn-1-yl)-3-methyl-2-((R)-1-methylpiperidine-2-carboxamido)pentanamido)-4-methylpentyl)thiazole-4-carboxamido)-5-(4-aminophenyl-3,5-d2)-2,2-dimethylpentanoic acid”, the step yield (coupling step) is recorded as 34%. Also, the “final HPLC purity” value (whole synthesis) was determined as 98.9%.

As to “(S)-4-(2-((1R,3R)-1-Acetoxy-3-((2S,3S)—N-(hex-5-ynyl)-3-methyl-2-((R)-1-methylpiperidine-2-carboxamido)pentanamido)-4-methylpentyl)thiazole-4-carboxamido)-5-(4-(benzyloxy)-3-nitrophenyl)-2,2-dimethylpentanoic acid”, under “coupling step”, the step yield was determined as 40%.

The substance “(S)-4-(2-((1R,3R)-1-Acetoxy-3-((2S,3S)—N-hexyl-3-methyl-2-((R)-1-methylpiperidine-2-carboxamido)pentanamido)-4-methylpentyl)thiazole-4-carboxamido)-5-(3-amino-4-hydroxyphenyl)-2,2-dimethylpentanoic acid” had a step yield (late stage modification step) of 12%. The “final HPLC purity” value (whole synthesis) came to 100%.

The substance “(S)-4-(2-((1R,3R)-1-Acetoxy-3-((2S,3S)—N-hexyl-3-methyl-2-((R)-1-methylpiperidine-2-carboxamido)pentanamido)-4-methylpentyl)thiazole-4-carboxamido)-5-(4-aminophenyl)-2,2-dimethylpentanoic acid” displayed a step yield (coupling step) of 72% yield. The “final HPLC purity” value (whole synthesis) came to 97.2%.

Regarding “(S)-4-(2-((1R,3R)-1-acetoxy-3-((2S,3S)—N-(4-(1-(carboxymethyl)-1H-1,2,3-triazol-4-yl)butyl)-3-methyl-2-((R)-1-methylpiperidine-2-carboxamido)pentanamido)-4-methylpentyl)thiazole-4-carboxamido)-5-(4-aminophenyl)-2,2-dimethylpentanoic acid”, under setting [1], the step yield is recorded as 16% yield in 2 steps. In addition, the “final HPLC purity” value (whole synthesis) stood at 97%.

For the setting “late stage modification step”, “(S)-4-(2-((1R,3R)-1-acetoxy-4-methyl-3-((2S,3S)-3-methyl-2-((R)-1-methylpiperidine-2-carboxamido)-N-(4-(1-phenyl-1H-1,2,3-triazol-4-yl)butyl)pentanamido)pentyl)thiazole-4-carboxamido)-5-(4-aminophenyl)-2,2-dimethylpentanoic acid” showed a step yield of 40% yield. Moreover, the “final HPLC purity” value (whole synthesis) amounted to 100%.

Take “(S)-4-(2-((1R,3R)-1-acetoxy-4-methyl-3-((2S,3S)-3-methyl-N-(4-(1-methyl-1H-1,2,3-triazol-4-yl)butyl)-2-((R)-1-methylpiperidine-2-carboxamido)pentanamido)pentyl)thiazole-4-carboxamido)-5-(4-aminophenyl)-2,2-dimethylpentanoic acid”: the step yield (late stage modification step) turned out to be 27% yield. The “final HPLC purity” value (whole synthesis) was found to be 99%.

For the substance “(S)-4-(2-((1R,3R)-3-((2S,3S)—N-(4-(1H-1,2,3-triazol-5-yl)butyl)-3-methyl-2-((R)-1-methylpiperidine-2-carboxamido)pentanamido)-1-acetoxy-4-methylpentyl)thiazole-4-carboxamido)-5-(4-aminophenyl)-2,2-dimethylpentanoic acid”, where the note is “late stage modification step”, the step yield is recorded as 35% yield. Besides, the “final HPLC purity” value (whole synthesis) is 100%.
